Reference: PubChem BioAssay AID1259308 (NCATS, 2017)
Test: 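Candidate targets for better recombinant protein yield in mammalian cells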 (primary screen). System: human HEK293 embryonic kidney cells stably expressing firefly luciferase (HEK-CMV-Luc2-Hygro). Reagents: single siRNA against human genes, 0.8 pmol siRNA per well. Timing: 72 h. Read-out: 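Reporter luminescence and viable-cell signal on separate replicate plates, given as percent of non-targeting control and median/MAD z-scores, plus per-cell luciferase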. Direction: total luciferase, z-score: higher = more reporter protein produced. Rule for the call: 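An siRNA counts as active if its total luciferase robust z-score exceeds 3; genes with two or more such siRNAs out of three were retested with fresh siRNAs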. Calls: active = raised luciferase; inactive = no rise.
The deposit covers about 59,000 reagents; shown is an unselected part. About 1,510 of them (2.6%) count as active. 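Calls use total luciferase alone and ignore viability, so some active siRNAs may act by altering cell number.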 The numbers tell different reagents against one gene apart. Not all columns of the deposit are shown.

{"gene": "COL11A2", "reagent no.": 1, "total luciferase, z-score": -2.24, "Outcome": "inactive"}
{"gene": "COL11A2", "reagent no.": 2, "total luciferase, z-score": -0.488, "Outcome": "inactive"}
{"gene": "COL11A2", "reagent no.": 3, "total luciferase, z-score": 0.0557, "Outcome": "inactive"}
{"gene": "TIGD6", "reagent no.": 1, "total luciferase, z-score": -0.948, "Outcome": "inactive"}
{"gene": "TIGD6", "reagent no.": 2, "total luciferase, z-score": -0.00497, "Outcome": "inactive"}
{"gene": "TIGD6", "reagent no.": 3, "total luciferase, z-score": 1.13, "Outcome": "inactive"}
{"gene": "TIGD6", "reagent no.": 4, "total luciferase, z-score": 0.563, "Outcome": "inactive"}
{"gene": "TIGD6", "reagent no.": 5, "total luciferase, z-score": 0.286, "Outcome": "inactive"}
{"gene": "TIGD6", "reagent no.": 6, "total luciferase, z-score": 0.254, "Outcome": "inactive"}
{"gene": "MTAP", "reagent no.": 1, "total luciferase, z-score": 0.857, "Outcome": "inactive"}
{"gene": "MTAP", "reagent no.": 2, "total luciferase, z-score": 0.594, "Outcome": "inactive"}
{"gene": "MTAP", "reagent no.": 3, "total luciferase, z-score": 0.764, "Outcome": "inactive"}
{"gene": "SNX3", "reagent no.": 1, "total luciferase, z-score": -0.0153, "Outcome": "inactive"}
{"gene": "SNX3", "reagent no.": 2, "total luciferase, z-score": 0.412, "Outcome": "inactive"}
{"gene": "SNX3", "reagent no.": 3, "total luciferase, z-score": 0.566, "Outcome": "inactive"}
{"gene": "ATG2A", "reagent no.": 1, "total luciferase, z-score": -2.86, "Outcome": "inactive"}
{"gene": "ATG2A", "reagent no.": 2, "total luciferase, z-score": 0.0274, "Outcome": "inactive"}
{"gene": "ATG2A", "reagent no.": 3, "total luciferase, z-score": -0.268, "Outcome": "inactive"}
{"gene": "GTPBP3", "reagent no.": 1, "total luciferase, z-score": -0.586, "Outcome": "inactive"}
{"gene": "GTPBP3", "reagent no.": 2, "total luciferase, z-score": -0.186, "Outcome": "inactive"}
{"gene": "GTPBP3", "reagent no.": 3, "total luciferase, z-score": -0.381, "Outcome": "inactive"}
{"gene": "AIF1", "reagent no.": 1, "total luciferase, z-score": -1.3, "Outcome": "inactive"}
{"gene": "AIF1", "reagent no.": 2, "total luciferase, z-score": -0.111, "Outcome": "inactive"}
{"gene": "AIF1", "reagent no.": 3, "total luciferase, z-score": -2, "Outcome": "inactive"}

Continued (5 carried over from the part before).
{"gene": "GTPBP3", "reagent no.": 2, "total luciferase, z-score": -0.186, "Outcome": "inactive"}
{"gene": "GTPBP3", "reagent no.": 3, "total luciferase, z-score": -0.381, "Outcome": "inactive"}
{"gene": "AIF1", "reagent no.": 1, "total luciferase, z-score": -1.3, "Outcome": "inactive"}
{"gene": "AIF1", "reagent no.": 2, "total luciferase, z-score": -0.111, "Outcome": "inactive"}
{"gene": "AIF1", "reagent no.": 3, "total luciferase, z-score": -2, "Outcome": "inactive"}
{"gene": "DGAT2L6", "reagent no.": 1, "total luciferase, z-score": 1.08, "Outcome": "inactive"}
{"gene": "DGAT2L6", "reagent no.": 2, "total luciferase, z-score": 0.439, "Outcome": "inactive"}
{"gene": "DGAT2L6", "reagent no.": 3, "total luciferase, z-score": -0.19, "Outcome": "inactive"}
{"gene": "ZFHX3", "reagent no.": 1, "total luciferase, z-score": 0.366, "Outcome": "inactive"}
{"gene": "ZFHX3", "reagent no.": 2, "total luciferase, z-score": -0.773, "Outcome": "inactive"}
{"gene": "ZFHX3", "reagent no.": 3, "total luciferase, z-score": -0.749, "Outcome": "inactive"}
{"gene": "MS4A3", "reagent no.": 1, "total luciferase, z-score": 1.79, "Outcome": "inactive"}
{"gene": "MS4A3", "reagent no.": 2, "total luciferase, z-score": 0.196, "Outcome": "inactive"}
{"gene": "MS4A3", "reagent no.": 3, "total luciferase, z-score": -0.237, "Outcome": "inactive"}
{"gene": "GALNTL6", "reagent no.": 1, "total luciferase, z-score": -0.656, "Outcome": "inactive"}
{"gene": "GALNTL6", "reagent no.": 2, "total luciferase, z-score": 0.379, "Outcome": "inactive"}
{"gene": "GALNTL6", "reagent no.": 3, "total luciferase, z-score": 0.445, "Outcome": "inactive"}
{"gene": "TM2D2", "reagent no.": 1, "total luciferase, z-score": -0.14, "Outcome": "inactive"}
{"gene": "TM2D2", "reagent no.": 2, "total luciferase, z-score": 0.119, "Outcome": "inactive"}
{"gene": "TM2D2", "reagent no.": 3, "total luciferase, z-score": -0.896, "Outcome": "inactive"}
{"gene": "NHERF2", "reagent no.": 1, "total luciferase, z-score": 0.335, "Outcome": "inactive"}
{"gene": "NHERF2", "reagent no.": 2, "total luciferase, z-score": 0.645, "Outcome": "inactive"}
{"gene": "NHERF2", "reagent no.": 3, "total luciferase, z-score": -1.01, "Outcome": "inactive"}
